Common to all, as to test: anti-FLAG co-IP, LC-MS/MS
Test [1] addresses T1, Dig2/Rst2 (Saccharomyces cerevisiae) (UniProt Q03373).
T1 sequence (looked up): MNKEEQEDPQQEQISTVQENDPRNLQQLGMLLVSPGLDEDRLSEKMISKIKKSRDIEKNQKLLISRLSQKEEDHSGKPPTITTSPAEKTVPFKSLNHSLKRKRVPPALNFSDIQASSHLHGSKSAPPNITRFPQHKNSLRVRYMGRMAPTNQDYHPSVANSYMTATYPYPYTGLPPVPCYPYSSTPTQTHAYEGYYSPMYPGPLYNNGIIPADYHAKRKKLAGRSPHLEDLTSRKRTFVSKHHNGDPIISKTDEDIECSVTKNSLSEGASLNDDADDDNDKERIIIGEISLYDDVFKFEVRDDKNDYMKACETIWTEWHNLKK

Test [2] concerns the target T2, Smc1 (Saccharomyces cerevisiae) (UniProt P32908).
T2 sequence (looked up): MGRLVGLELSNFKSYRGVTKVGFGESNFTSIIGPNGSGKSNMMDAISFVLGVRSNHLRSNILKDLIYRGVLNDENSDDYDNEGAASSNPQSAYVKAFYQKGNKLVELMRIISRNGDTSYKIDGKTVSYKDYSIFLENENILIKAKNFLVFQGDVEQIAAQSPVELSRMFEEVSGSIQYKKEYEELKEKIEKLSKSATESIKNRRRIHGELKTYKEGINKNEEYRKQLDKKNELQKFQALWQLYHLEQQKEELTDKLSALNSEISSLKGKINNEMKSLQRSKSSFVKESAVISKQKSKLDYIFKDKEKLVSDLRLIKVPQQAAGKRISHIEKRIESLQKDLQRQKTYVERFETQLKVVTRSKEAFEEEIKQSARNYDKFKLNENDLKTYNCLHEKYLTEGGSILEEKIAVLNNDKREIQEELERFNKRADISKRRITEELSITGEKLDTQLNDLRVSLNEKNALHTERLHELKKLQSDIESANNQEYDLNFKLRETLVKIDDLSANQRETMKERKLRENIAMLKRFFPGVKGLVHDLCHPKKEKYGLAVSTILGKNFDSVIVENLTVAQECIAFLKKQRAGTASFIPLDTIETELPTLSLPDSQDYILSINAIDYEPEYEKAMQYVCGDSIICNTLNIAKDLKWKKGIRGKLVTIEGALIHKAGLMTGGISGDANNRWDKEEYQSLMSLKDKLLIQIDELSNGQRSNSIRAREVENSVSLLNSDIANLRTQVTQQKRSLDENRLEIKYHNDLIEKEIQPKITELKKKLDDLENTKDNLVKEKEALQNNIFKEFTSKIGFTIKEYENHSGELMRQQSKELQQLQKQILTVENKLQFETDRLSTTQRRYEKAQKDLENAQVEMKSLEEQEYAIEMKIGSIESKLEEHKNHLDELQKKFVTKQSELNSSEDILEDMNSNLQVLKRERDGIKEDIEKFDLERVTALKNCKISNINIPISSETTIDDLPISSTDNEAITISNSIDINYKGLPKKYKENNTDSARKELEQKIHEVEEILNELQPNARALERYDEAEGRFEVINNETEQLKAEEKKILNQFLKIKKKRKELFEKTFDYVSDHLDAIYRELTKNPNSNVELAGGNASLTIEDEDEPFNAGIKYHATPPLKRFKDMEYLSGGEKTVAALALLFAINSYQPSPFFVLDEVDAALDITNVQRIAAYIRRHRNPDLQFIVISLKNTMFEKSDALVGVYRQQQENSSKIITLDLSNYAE

Test [3] deals with T3, Smc3 (Saccharomyces cerevisiae) (UniProt P47037).
T3 sequence (looked up): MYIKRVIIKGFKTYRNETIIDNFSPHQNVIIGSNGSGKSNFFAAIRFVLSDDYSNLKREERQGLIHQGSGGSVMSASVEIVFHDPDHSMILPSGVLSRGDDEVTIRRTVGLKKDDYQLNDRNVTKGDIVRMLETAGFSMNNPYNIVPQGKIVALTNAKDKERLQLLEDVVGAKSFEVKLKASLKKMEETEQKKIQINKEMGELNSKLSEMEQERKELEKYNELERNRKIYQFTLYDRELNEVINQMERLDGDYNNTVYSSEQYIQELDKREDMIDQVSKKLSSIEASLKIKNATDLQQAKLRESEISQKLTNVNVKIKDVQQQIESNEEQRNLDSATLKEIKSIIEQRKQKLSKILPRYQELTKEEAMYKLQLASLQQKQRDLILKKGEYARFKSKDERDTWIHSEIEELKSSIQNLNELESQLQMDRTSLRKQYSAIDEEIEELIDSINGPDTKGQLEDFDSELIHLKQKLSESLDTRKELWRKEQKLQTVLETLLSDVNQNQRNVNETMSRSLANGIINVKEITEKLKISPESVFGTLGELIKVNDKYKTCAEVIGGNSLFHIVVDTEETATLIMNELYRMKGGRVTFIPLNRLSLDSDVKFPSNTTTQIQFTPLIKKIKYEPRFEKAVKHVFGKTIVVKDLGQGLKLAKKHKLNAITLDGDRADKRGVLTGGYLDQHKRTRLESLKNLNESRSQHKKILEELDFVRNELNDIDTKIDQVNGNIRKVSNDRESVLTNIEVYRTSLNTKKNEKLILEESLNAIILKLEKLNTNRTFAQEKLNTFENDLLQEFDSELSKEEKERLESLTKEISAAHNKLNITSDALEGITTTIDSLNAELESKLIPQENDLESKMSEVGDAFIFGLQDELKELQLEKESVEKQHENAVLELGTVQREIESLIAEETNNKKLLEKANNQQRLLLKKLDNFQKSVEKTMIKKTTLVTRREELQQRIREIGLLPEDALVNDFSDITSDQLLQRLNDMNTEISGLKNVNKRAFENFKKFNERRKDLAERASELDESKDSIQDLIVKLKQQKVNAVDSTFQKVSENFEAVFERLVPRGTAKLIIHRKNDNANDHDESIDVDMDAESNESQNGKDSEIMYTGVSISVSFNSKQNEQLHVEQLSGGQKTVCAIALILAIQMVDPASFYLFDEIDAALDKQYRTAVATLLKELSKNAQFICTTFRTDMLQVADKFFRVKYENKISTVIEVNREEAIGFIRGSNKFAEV

These results are taken from patent publication US20030162221A1.

Results are given in words; binding and its absence hold for the method and conditions named. In cells and extracts the contact can be indirect. Some binding calls cover weakened binding; strength is not graded here. Sequences can lack the tags named with a protein.

B1: Kss1 (protein, Saccharomyces cerevisiae, UniProt P14681 1-368, looked up)
chain: MARTITFDIPSQYKLVDLIGEGAYGTVCSAIHKPSGIKVAIKKIQPFSKKLFVTRTIREIKLLRYFHEHENIISILDKVRPVSIDKLNAVYLVEELMETDLQKVINNQNSGFSTLSDDHVQYFTYQILRALKSIHSAQVIHRDIKPSNLLLNSNCDLKVCDFGLARCLASSSDSRETLVGFMTEYVATRWYRAPEIMLTFQEYTTAMDIWSCGCILAEMVSGKPLFPGRDYHHQLWLILEVLGTPSFEDFNQIKSKRAKEYIANLPMRPPLPWETVWSKTDLNPDMIDLLDKMLQFNPDKRISAAEALRHPYLAMYHDPSDEPEYPPLNLDDEFWKLDNKIMRPEEEEEVPIEMLKDMLYDELMKTME
As for B1, the binding result in test [1] is “binds”.

B2: Cdc5 (protein, Saccharomyces cerevisiae, UniProt P32562 1-705, looked up)
chain: MSLGPLKAINDKQLNTRSKLVHTPIKGNTADLVGKENHFKQTKRLDPNNDHHHQPAQKKKREKLSALCKTPPSLIKTRGKDYHRGHFLGEGGFARCFQIKDDSGEIFAAKTVAKASIKSEKTRKKLLSEIQIHKSMSHPNIVQFIDCFEDDSNVYILLEICPNGSLMELLKRRKVLTEPEVRFFTTQICGAIKYMHSRRVIHRDLKLGNIFFDSNYNLKIGDFGLAAVLANESERKYTICGTPNYIAPEVLMGKHSGHSFEVDIWSLGVMLYALLIGKPPFQARDVNTIYERIKCRDFSFPRDKPISDEGKILIRDILSLDPIERPSLTEIMDYVWFRGTFPPSIPSTVMSEAPNFEDIPEEQSLVNFKDCMEKSLLLESMSSDKIQRQKRDYISSIKSSIDKLEEYHQNRPFLPHSLSPGGTKQKYKEVVDIEAQRRLNDLAREARIRRAQQAVLRKELIATSTNVIKSEISLRILASECHLTLNGIVEAEAQYKMGGLPKSRLPKIKHPMIVTKWVDYSNKHGFSYQLSTEDIGVLFNNGTTVLRLADAEEFWYISYDDREGWVASHYLLSEKPRELSRHLEVVDFFAKYMKANLSRVSTFGREEYHKDDVFLRRYTRYKPFVMFELSDGTFQFNFKDHHKMAISDGGKLVTYISPSHESTTYPLVEVLKYGEIPGYPESNFREKLTLIKEGLKQKSTIVTVD
With B2, the binding entry in test [2] and in test [3] was “binds” throughout.
